The supplement of paper PMC11006884
Most of the targets with a hit are listed elsewhere, so they are rarer here than in the full data. The data scatter; read single values as rough. This is a selection; strong and weak results do not stand in their true shares.

Each target was assayed with COC(=O)/C=C/c1ccccc1 [methyl cinnamate] (assay: log2 ratio of iodoacetamide-alkyne labeling of the cysteine site, DMSO over compound (competition); higher = stronger covalent engagement of the cysteine by the compound, active = 1 or more). Conditions: 500 µM; treatment time 1 h; system: HEK293T cell lysate.
Summary of the method: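 HEK293T lysate at 2 mg/mL was treated with vehicle or electrophile (500 µM) for 1 h at ambient temperature, then labelled with iodoacetamide alkyne (1 h), clicked to sCIP-TMT reagents, pooled, digested with trypsin overnight at 37 °C, enriched on streptavidin and eluted with acid. Peptides were analysed by Orbitrap Eclipse LC-MS/MS with FAIMS and quantified in FragPipe, using duplicate channels and three replicates, with cysteines quantified in only one replicate excluded. The log2 competition ratio for each cysteine is the mean control-channel reporter intensity divided by the mean compound-channel reporter intensity.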
For RUFY1 C351 (UniProt Q96T51), the “log2 ratio of iodoacetamide-alkyne labeling” value (shortened to “log2 ratio”) was inactive: 0.476.
For PASK C15 (UniProt Q96RG2), the “log2 ratio” value was inactive: 0.216.
With KIF2C C245 (UniProt Q99661) the “log2 ratio” value was inactive: 0.39.
With USP28 C142 (UniProt Q96RU2) the “log2 ratio” value was inactive: 0.386.
FUBP3 C148 (UniProt Q96I24) was tested, and the “log2 ratio” value was inactive: 0.118.
With DDX50 C417 (UniProt Q9BQ39) the “log2 ratio” value was inactive: 0.298.
In the case of CPNE1 C30 (UniProt Q99829), the “log2 ratio” value is reported as inactive: -0.221.
RANBP9 C719 (UniProt Q96S59) was tested, and the “log2 ratio” value was inactive: 0.173.
In the case of PURB C238 (UniProt Q96QR8), the “log2 ratio” value is reported as inactive: 0.00791.
In the case of UniProt Q99590_C450, the “log2 ratio” value is reported as inactive: 0.165.
For ACO2 C740 (UniProt Q99798), the “log2 ratio” value was inactive: -0.0692.
For NUDCD1 C32 (UniProt Q96RS6), the “log2 ratio” value was inactive: 0.24.
In the case of NACC1 C416 (UniProt Q96RE7), the “log2 ratio” value is reported as inactive: 0.141.
For MIPEP C116 (UniProt Q99797), the “log2 ratio” value was inactive: -0.199.
In the case of FAM118B C93 (UniProt Q9BPY3), the “log2 ratio” value is reported as inactive: -0.109.
POP1 C408 (UniProt Q99575) was tested, and the “log2 ratio” value was inactive: -0.0294.
For FUBP3 C310 (UniProt Q96I24), the “log2 ratio” value was inactive: -0.108.
With EHMT2 C1115 (UniProt Q96KQ7) the “log2 ratio” value was inactive: 0.309.
SPEN C877 (UniProt Q96T58) was tested, and the “log2 ratio” value was inactive: 0.289.
For CCT7 C310 (UniProt Q99832), the “log2 ratio” value was inactive: 0.111.
For USP47 C856 (UniProt Q96K76), the “log2 ratio” value was inactive: 0.351.
In the case of MED15 C660 (UniProt Q96RN5), the “log2 ratio” value is reported as inactive: 0.0718.
In the case of RANBP9 C678 (UniProt Q96S59), the “log2 ratio” value is reported as inactive: 0.319.
In the case of SPEN C1066 (UniProt Q96T58), the “log2 ratio” value is reported as inactive: 0.059.
With YME1L1 C433 (UniProt Q96TA2) the “log2 ratio” value was inactive: -0.132.
PDLIM2 C289 (UniProt Q96JY6) was tested, and the “log2 ratio” value was inactive: -0.0385.
With VPS35 C653 (UniProt Q96QK1) the “log2 ratio” value was inactive: 0.167.
For XPO6 C22 (UniProt Q96QU8), the “log2 ratio” value was inactive: -0.0263.
In the case of UniProt Q96NC0_C85, the “log2 ratio” value is reported as inactive: -0.132.
In the case of DDX50 C242 (UniProt Q9BQ39), the “log2 ratio” value is reported as inactive: -0.00275.
For DOCK7 C457 (UniProt Q96N67), the “log2 ratio” value was inactive: 0.112.
In the case of SPAG5 C589 (UniProt Q96R06), the “log2 ratio” value is reported as inactive: -0.0142.
For SPEN C1134 (UniProt Q96T58), the “log2 ratio” value was inactive: -0.289.
With CRBN C78 (UniProt Q96SW2) the “log2 ratio” value was inactive: 0.0986.
In the case of ZNF512 C540 (UniProt Q96ME7), the “log2 ratio” value is reported as inactive: 0.428.
ACO2 C448 (UniProt Q99798) was tested, and the “log2 ratio” value was inactive: 0.285.
For CNN2 C215 (UniProt Q99439), the “log2 ratio” value was inactive: 0.241.
